Paper PMC4768221, “Subcellular localization of anthracyclines in cultured rat cardiomyoblasts as possible predictors of cardiotoxicity” (Investigational New Drugs, 2015)
Values joined by “and” are separate entries in the source; they are usually repeats but may differ in a detail not shown here. Equal values may be shown once.

System: H9c2(2-1) cells
Assay: Subcellular localization (fluorescence microscopy, densitometry)
Assay type: cell-based, rat
Conditions: 10 μM, 1 h, 37 °C; for % of drug localized in the nucleus: densitometry, 25 individual cells ± S.D.

| Compound | Subcellular localization (fluorescence images) | % of drug localized in the nucleus |
| --- | --- | --- |
| COc1cccc2c1C(=O)c1c(O)c3c(c(O)c1C2=O)C[C@@](O)(C(=O)CO)C[C@@H]3O[C@H]1C[C@H](N)[C@H](O)[C@H](C)O1 [DOX, doxorubicin, reference compound] | accumulated preferentially in cell nuclei | 80.2% and 80.2 ± 3.1% |
| COc1cccc2c1C(=O)c1c(O)c3c(c(O)c1C2=O)C[C@@](O)(C(C)=O)C[C@@H]3O[C@H]1C[C@H](N=CN2CCOCC2)[C@H](O)[C@H](C)O1 [DRBM] | localized primarily in the cytoplasm | 19.9% and 19.9 ± 1.4% |
| COc1cccc2c1C(=O)c1c(O)c3c(c(O)c1C2=O)C[C@@](O)(C(C)=O)C[C@@H]3O[C@H]1C[C@H](N)[C@H](O)[C@H](C)O1 [DRB, daunorubicin, reference compound] | present in both the nucleus and cytoplasm | 35.8 ± 4.1% |
| COc1cccc2c1C(=O)c1c(O)c3c(c(O)c1C2=O)C[C@@](O)(C(=O)CO)C[C@@H]3O[C@H]1C[C@H](N=CN2CCCCCC2)[C@H](O)[C@H](C)O1 [DOXH] | accumulated preferentially in cell nuclei | 54.2% and 54.2 ± 6.2% |
| COc1cccc2c1C(=O)c1c(O)c3c(c(O)c1C2=O)C[C@@](O)(C(C)=O)C[C@@H]3O[C@H]1C[C@H](N=CN2CCCCCC2)[C@H](O)[C@H](C)O1 [DRBH] | localized primarily in the cytoplasm | 21.9% and 21.9 ± 2.1% |
| COc1cccc2c1C(=O)c1c(O)c3c(c(O)c1C2=O)C[C@@](O)(C(=O)CO)C[C@@H]3O[C@H]1C[C@H](N=CN2CCOCC2)[C@H](O)[C@H](C)O1 [DOXM] | primarily in the cytoplasm | 23.7% and 23.7 ± 1.0% |
